According to PubChem BioAssay AID651768 (National Center for Advancing Translational Sciences (NCATS), 2012):
The campaign covered roughly 360,000 compounds. About 1,700 (0.47%) were called active. The inconclusive results got no clear call from the source; some entries with a clear call stand among them for comparison. Calls come from the whole dose curve; as a rule, active = well fitted inhibition curve with a large enough effect; inconclusive = small, poorly fitted or top-dose-only effect; inactive = no such curve, though single readings can be large or run the other way. A potency beside an inconclusive call is a rough fit, not a confirmed value.

Protein sequences, listed by entry. Tags and fused reporters are not part of them.
UniProt Q14191, whole entry, looked up: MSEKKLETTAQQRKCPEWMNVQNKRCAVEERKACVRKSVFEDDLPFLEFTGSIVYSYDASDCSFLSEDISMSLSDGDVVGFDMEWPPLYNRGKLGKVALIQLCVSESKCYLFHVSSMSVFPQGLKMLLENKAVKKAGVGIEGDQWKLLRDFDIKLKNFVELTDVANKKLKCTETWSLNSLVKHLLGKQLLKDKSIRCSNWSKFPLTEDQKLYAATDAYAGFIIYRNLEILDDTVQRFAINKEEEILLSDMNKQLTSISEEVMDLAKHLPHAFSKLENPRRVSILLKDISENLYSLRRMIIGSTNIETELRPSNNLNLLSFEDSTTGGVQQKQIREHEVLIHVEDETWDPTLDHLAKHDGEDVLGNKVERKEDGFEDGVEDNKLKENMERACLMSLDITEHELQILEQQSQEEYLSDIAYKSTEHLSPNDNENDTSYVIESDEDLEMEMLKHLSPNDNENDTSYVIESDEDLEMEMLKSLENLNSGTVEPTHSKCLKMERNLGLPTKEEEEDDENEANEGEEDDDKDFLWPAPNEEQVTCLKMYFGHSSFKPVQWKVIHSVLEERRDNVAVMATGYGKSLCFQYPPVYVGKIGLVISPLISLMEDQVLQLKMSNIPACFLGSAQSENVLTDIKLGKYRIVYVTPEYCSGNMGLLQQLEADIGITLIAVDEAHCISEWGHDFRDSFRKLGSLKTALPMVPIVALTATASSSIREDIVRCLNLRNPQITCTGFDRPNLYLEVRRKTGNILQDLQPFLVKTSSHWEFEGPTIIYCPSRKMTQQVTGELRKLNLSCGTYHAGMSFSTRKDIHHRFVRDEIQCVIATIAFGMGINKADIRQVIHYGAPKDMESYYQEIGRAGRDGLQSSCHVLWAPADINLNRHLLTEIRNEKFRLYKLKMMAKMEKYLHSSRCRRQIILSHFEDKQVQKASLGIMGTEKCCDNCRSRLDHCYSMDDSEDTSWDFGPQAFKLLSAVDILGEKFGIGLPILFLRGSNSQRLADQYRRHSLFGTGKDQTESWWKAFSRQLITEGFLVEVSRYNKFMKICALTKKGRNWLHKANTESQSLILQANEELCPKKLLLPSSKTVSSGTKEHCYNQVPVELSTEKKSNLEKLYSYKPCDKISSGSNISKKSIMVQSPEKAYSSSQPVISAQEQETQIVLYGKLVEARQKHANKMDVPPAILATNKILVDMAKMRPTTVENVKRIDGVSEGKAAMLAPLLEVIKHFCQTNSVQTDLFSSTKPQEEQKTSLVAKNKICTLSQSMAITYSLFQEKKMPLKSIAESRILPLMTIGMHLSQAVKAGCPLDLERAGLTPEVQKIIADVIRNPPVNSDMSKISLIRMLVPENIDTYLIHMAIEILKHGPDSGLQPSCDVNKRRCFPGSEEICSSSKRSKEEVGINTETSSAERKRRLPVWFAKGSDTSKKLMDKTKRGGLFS

Target: Bifunctional 3'-5' exonuclease/ATP-dependent helicase WRN (Homo sapiens) (UniProt Q14191)
Assay: qHTS for Inhibitors of WRN Helicase; note: nearly all actives have a fitted effect of over 55% in size
Conditions: WRN helicase unwinding, fluorescent forked duplex, kinetic; activity change, negative = inhibition: at 114 µM (top of the series) unless noted
Outline: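 Kinetic red-fluorescence monitoring (525/598 nm) tracks WRN helicase activity after 100 nM fluorophore-quencher forked duplex and 2 mM ATP are added to 20 nM enzyme pretreated 15 min at room temperature with compound.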
% is set by controls: 0 for no effect and ±100 for the full control effect; potency is the fitted concentration of half-maximal effect.

Row | Structure (SMILES) | Potency | activity change, negative = inhibition
1 | COc1cc(OC)cc(C(=O)Nc2ccc(S(=O)(=O)Nc3cnc4ccccc4n3)cc2)c1 | inconclusive: 8.91 µM [inhibitor, full curve, poor fit] | –
2 | COc1ccc(CCNC(=O)c2nnn(CC(=O)Nc3ccccc3)c2N)cc1OC | inconclusive: 44.7 µM [inhibitor, partial curve] | –
3 | O=C(O)c1cccc(Nc2nc(-c3cc4ccccc4oc3=O)cs2)c1 | inconclusive: 2.82 µM [inhibitor, full curve] | –
4 | COC(=O)c1c(Cl)c2n3ccccc3c(C)c(-c3ccccc3)c-2c1C(=O)OC | inconclusive: 100 µM [inhibitor, partial curve, poor fit] | –
5 | O=C(O)c1cccc(S(=O)(=O)NNc2ccccc2C(F)(F)F)c1 | inconclusive: 79.4 µM [inhibitor, single point] | –
6 | CC(=O)Nc1ccc(N2C(=O)c3ccc(S(=O)(=O)c4ccc(C(=O)O)cc4)cc3C2=O)cc1 | inconclusive: 89.1 µM [inhibitor, single point] | –
7 | O=C1CCCC2=C1C(c1ccc(O)c(O)c1)Nc1ccc3ncccc3c12 (stereo not given) | inconclusive: 44.7 µM [inhibitor, partial curve, poor fit] | –
8 | C=CC(=O)N1C/C(=C/c2ccc(F)cc2)C(=O)/C(=C\c2ccc(F)cc2)C1 | active: 39.8 µM | –
9 | Cc1cccc(OCC(=O)N/N=C/c2sc(=O)n(Cc3cccc(C(=O)O)c3)c2Cl)c1 | inconclusive: 89.1 µM [inhibitor, single point] | –
10 | CCN(CC)c1ccc(C=C2C(=O)OC(c3ccccc3)OC2=O)cc1 (stereo not given) | active: 50.1 µM | –
11 | COc1cc(/C=N/Nc2nc(Nc3ccccc3)nc(-n3nc(C)cc3C)n2)cc(OC)c1OC | inconclusive: 79.4 µM [inhibitor, partial curve] | –
12 | Cc1ccccc1OCCC(=O)N(Cc1ccccc1)c1c(N)n(Cc2ccccc2)c(=O)[nH]c1=O | inconclusive: 50.1 µM [inhibitor, partial curve] | –
13 | N#CC1=C(c2ccccc2)/C(=C/c2ccccc2)OC1=O | inconclusive: 3.98 µM [inhibitor, full curve, poor fit] | –
14 | CC1=[N+]([O-])C(C)(C)N(O)C1(C)C | – | inactive: 3.84%
15 | O=c1oc(/C=C/c2ccco2)nc2sc3c(c12)CCC3 | inconclusive: 63.1 µM [inhibitor, partial curve] | –
16 | O=C(O)c1cc(-n2cccc2)ccc1N1CCOCC1 | – | inactive: 3.42% [at 11.6 µM]
17 | O=c1cc(-c2ccccc2Cl)oc2c(NS(=O)(=O)c3cc(Cl)cc(Cl)c3O)ccc(O)c12 | inconclusive: 79.4 µM [inhibitor, partial curve] | –
18 | O=C(Nc1ccccc1C(=O)N1CCN(Cc2ccccc2)CC1)c1ccc(F)cc1 | inconclusive: 25.1 µM [inhibitor, single point] | –
19 | CCn1c(=O)c([N+](=O)[O-])c(N2CCN(Cc3ccc4c(c3)OCO4)CC2)c2ccccc21 | inconclusive: 3.55 µM [inhibitor, full curve, poor fit] | –
20 | COC(=O)CCCCC1=CCC2C(=O)C=C(O)C2C1 (stereo not given) | active: 50.1 µM | –
21 | CCCn1nnnc1NCc1c(F)cccc1Cl | – | inactive: 3.2%
22 | O=C(Nc1ccc(F)cc1)Nc1nnc(-c2ccncc2)s1 | – | inactive: -2.63%

Whole records, quoted from the list.
N#CC1=C(c2ccccc2)/C(=C/c2ccccc2)OC1=O is listed with Potency: inconclusive: 3.98 µM [inhibitor, full curve, poor fit]
CCN(CC)c1ccc(C=C2C(=O)OC(c3ccccc3)OC2=O)cc1 (stereo not given) is listed with Potency: active: 50.1 µM
COc1ccc(CCNC(=O)c2nnn(CC(=O)Nc3ccccc3)c2N)cc1OC is listed with Potency: inconclusive: 44.7 µM [inhibitor, partial curve]
CC(=O)Nc1ccc(N2C(=O)c3ccc(S(=O)(=O)c4ccc(C(=O)O)cc4)cc3C2=O)cc1 is listed with Potency: inconclusive: 89.1 µM [inhibitor, single point]

(cont.)

Row | Structure (SMILES) | Potency | activity change, negative = inhibition
23 | O=C(COC(=O)C1CCN(S(=O)(=O)c2cc([N+](=O)[O-])ccc2Cl)CC1)Nc1ncc(Cl)cc1Cl | inconclusive: 50.1 µM [inhibitor, partial curve] | –
24 | Cc1ccc(NC(=O)c2cc(N3C(=O)C=CC3=O)ccc2Cl)cc1C | inconclusive: 25.1 µM [inhibitor, single point] | –
25 | CC1CC(C)CN(C(=O)COC(=O)/C=C/c2ccco2)C1 (stereo not given) | inconclusive: 11.2 µM [inhibitor, single point] | –
26 | CCOC(=O)c1c(C(=O)OCC)c(C)n(N2C(=O)CSC2=S)c1C | inconclusive: 39.8 µM [inhibitor, partial curve] | –
27 | Cc1cc(/C=N/Nc2ccc([N+](=O)[O-])cn2)c(C)n1-c1cccc(C(=O)O)c1 | inconclusive: 50.1 µM [inhibitor, partial curve] | –
28 | O=C(Nc1nc(-c2ccccc2)cs1)c1ccco1 | – | inactive: -0.635%
29 | C=CCn1c(-c2cc3c(s2)CCC(CC)C3)n[nH]c1=S (stereo not given) | inconclusive: 79.4 µM [inhibitor, single point] | –
30 | CCC(C)(C)c1ccc(OCC(=O)N(C)C)c(C(C)(C)CC)c1 | inconclusive: 70.8 µM [inhibitor, single point] | –
31 | CCn1c(/N=C/c2ccccc2NS(=O)(=O)c2ccc(C)cc2)nc2ccccc21 | inconclusive: 112 µM [inhibitor, partial curve, poor fit] | –
32 | O=[N+]([O-])c1ccc(SCCc2ccncc2)cc1 | inconclusive: 50.1 µM [inhibitor, partial curve] | –
33 | CC(=O)N/C(=C/c1cccnc1)C(=O)Nc1ccc(Cl)cc1 | – | inactive: 9.15%
34 | Cc1ccnc(Nc2nc(-c3c(C)nc4sccn34)cs2)c1 | inconclusive: 35.5 µM [inhibitor, partial curve] | –
35 | Cn1cccc1Cc1nnc(SCC(=O)Nc2cccc(F)c2)n1-c1ccc(F)cc1 | – | inactive: -9.54%
36 | CC(SCc1cc(=O)n2c([nH]c3ccccc32)c1C#N)C(=O)O (stereo not given) | inconclusive: 35.5 µM [inhibitor, partial curve] | –
37 | N#Cc1ccc(C(CC(=O)O)N2Cc3ccccc3C2=O)cc1 (stereo not given) | – | inactive: 0.244%
38 | CCOC(=O)N1CCN(C(=O)CSc2nc3c([nH]c4ccccc43)c(=O)n2CCOC)CC1 | inconclusive: 35.5 µM [inhibitor, full curve, poor fit] | –
39 | O=[N+]([O-])c1cccc(/C=N/n2c(-c3cccnc3)n[nH]c2=S)c1 | inconclusive: 25.1 µM [inhibitor, full curve, poor fit] | –
40 | Cc1ccc(Oc2ccc(S(=O)(=O)N3CCOCC3)cc2C(N)=O)cc1C | inconclusive: 50.1 µM [inhibitor, partial curve] | –
41 | CCOC(=O)c1cc2c(=O)n3cccc(C)c3nc2n(Cc2ccco2)c1=NC(=O)c1cccnc1 | inconclusive: 79.4 µM [inhibitor, partial curve] | –
42 | O=C(Nc1cccc(-c2nc3ccccc3c(=O)o2)c1)c1ccccc1 | inconclusive: 44.7 µM [inhibitor, partial curve] | –
43 | COc1ccc(-c2cc3ccccc3oc2=O)cc1NC(=O)c1ccc(Br)o1 | – | inactive: -10.1% [at 11.6 µM]
44 | C=CCOc1ccc(/C=C2\SC(=S)N(NS(=O)(=O)c3ccc(C)cc3)C2=O)cc1 | inconclusive: 56.2 µM [inhibitor, partial curve, poor fit] | –

Row | Structure (SMILES) | Potency | activity change, negative = inhibition
45 | O=C(Nc1cccc(C(F)(F)F)c1)c1ccc2nc(-c3ccco3)c(-c3ccco3)nc2c1 | active: 25.1 µM | –
46 | O=C(O)CN1C(=O)/C(=C\c2cc([N+](=O)[O-])ccc2OCc2ccccc2Cl)SC1=S | active: 44.7 µM | –
47 | Cc1ccc(C(O)c2ncc(-c3cccc(C(F)(F)F)c3)[nH]2)cc1F (stereo not given) | – | inactive: -10.4%
48 | CCC(=O)Nc1ccc2nc3c(=O)[nH]c(=S)[nH]c3nc2c1 | inconclusive: 56.2 µM [inhibitor, partial curve] | –
49 | Nc1ccc2c(c1)C(=O)c1cc([N+](=O)[O-])ccc1-2 | inconclusive: 10 µM [inhibitor, full curve, poor fit] | –
50 | COc1ccc(-c2nnn(CC(=O)N(Cc3ccco3)C(C(=O)NCC3CCCO3)c3ccco3)n2)cc1 (stereo not given) | inconclusive: 25.1 µM [inhibitor, single point] | –
51 | CCn1c(SCC(=O)NC2CCCCC2)nnc1-c1ccccc1F | inconclusive: 89.1 µM [inhibitor, single point] | –
52 | CCOc1ccc2nc(SCC(=O)c3ccc(Cl)s3)sc2c1 | inconclusive: 56.2 µM [inhibitor, partial curve, poor fit] | –
53 | O=C(Nc1cc(Cl)cc(Cl)c1)N1CCN(C(=O)C2CCCO2)CC1 (stereo not given) | inconclusive: 44.7 µM [inhibitor, partial curve] | –
54 | CCOc1ccc(-c2ccc(SCC(=O)NCC3CCCO3)nn2)cc1 (stereo not given) | inconclusive: 89.1 µM [inhibitor, single point] | –
55 | CCOC(=O)/C(C#N)=C/c1ccc(N2CCN(Cc3ccccc3)CC2)cc1 | inconclusive: 25.1 µM [inhibitor, full curve, poor fit] | –
56 | CCCCCCc1cc2cc(-c3nnc(-c4ccccc4)o3)c(=O)oc2cc1O | active: 56.2 µM | –
57 | COc1ccccc1-c1cc(NC(C)=O)c2ncc(-c3ccc(F)cc3)n2c1 | inconclusive: 31.6 µM [inhibitor, single point] | –
58 | Cc1nn(-c2ccccc2)c2nc(-c3ccco3)cc(C(=O)O)c12 | inconclusive: 23.8 µM [inhibitor, partial curve] | –
59 | N#C/C(=N\Nc1ccc(Cl)cc1)C(=O)c1ccccc1 | inconclusive: 44.7 µM [inhibitor, full curve, poor fit] | –
60 | COc1ccc(N2Cc3cccc(C(=O)N4CCN(C(=O)c5ccco5)CC4)c3C2=O)cc1 | active: 50.1 µM | –
61 | Cc1ccc(NC(=O)C2=C(c3ccccc3)S(=O)(=O)CCS2(=O)=O)cc1 | active: 22.4 µM | –
62 | COc1ccc(C2CC(=O)c3cnc(NC(=O)c4ccco4)nc3C2)cc1 (stereo not given) | – | inactive: -18.3%
63 | Cc1cc(O)c(C(C)C)cc1N=Cc1ccc([N+](=O)[O-])cc1 | inconclusive: 63.1 µM [inhibitor, partial curve, poor fit] | –
64 | Cc1ccnc(NS(=O)(=O)c2ccc(NC(=O)C34CC5CC(CC(C5)C3)C4)cc2)n1 | – | inactive: 0.631%
65 | O=C(O)CSc1ncnc2scc(-c3ccc(Br)cc3)c12 | – | inactive: -1.58%
